Data as given in PMC7815719.
Results are given in words; binding and its absence hold for the method and conditions named. In cells and extracts the contact can be indirect. Some results given as binding are weak or reduced against the parent protein; the word gives no strength.

By UniProt entry, the sequences of proteins in these tests, tags left out. Residues count along the entry.
UniProt P01375, residues 77-233: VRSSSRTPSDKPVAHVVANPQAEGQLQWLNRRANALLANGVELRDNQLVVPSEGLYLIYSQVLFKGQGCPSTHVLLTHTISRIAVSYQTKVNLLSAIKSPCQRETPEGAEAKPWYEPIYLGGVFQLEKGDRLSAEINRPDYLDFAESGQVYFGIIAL

Molecular target: GST-hTNF (residues 77-233) (human) (UniProt P01375)
Assay: pull-down; WT and MIB2 KO HeLa cells (similar in HCT116) stimulated with GST-TNF (1 μg/ml), with or without BV6 (0.1 μM); lysed in IP buffer; TNFR-containing complex I precipitated with glutathione-Sepharose overnight at 4 °C; immunoblot; only the target purified

B1: endogenous TBK1 (enzyme, UniProt Q9UHD2 1-729)
chain: MQSTSNHLWLLSDILGQGATANVFRGRHKKTGDLFAIKVFNNISFLRPVDVQMREFEVLKKLNHKNIVKLFAIEEETTTRHKVLIMEFCPCGSLYTVLEEPSNAYGLPESEFLIVLRDVVGGMNHLRENGIVHRDIKPGNIMRVIGEDGQSVYKLTDFGAARELEDDEQFVSLYGTEEYLHPDMYERAVLRKDHQKKYGATVDLWSIGVTFYHAATGSLPFRPFEGPRRNKEVMYKIITGKPSGAISGVQKAENGPIDWSGDMPVSCSLSRGLQVLLTPVLANILEADQEKCWGFDQFFAETSDILHRMVIHVFSLQQMTAHKIYIHSYNTATIFHELVYKQTKIISSNQELIYEGRRLVLEPGRLAQHFPKTTEENPIFVVSREPLNTIGLIYEKISLPKVHPRYDLDGDASMAKAITGVVCYACRIASTLLLYQELMRKGIRWLIELIKDDYNETVHKKTEVVITLDFCIRNIEKTVKVYEKLMKINLEAAELGEISDIHTKLLRLSSSQGTIETSLQDIDSRLSPGGSLADAWAHQEGTHPKDRNVEKLQVLLNCMTEIYYQFKKDKAERRLAYNEEQIHKFDKQKLYYHATKAMTHFTDECVKKYEAFLNKSEEWIRKMLHLRKQLLSLTNQCFDIEEEVSKYQEYTNELQETLPQKMFTASSGIKHTMTPIYPSSNTLVEMTLGMKKLKEEMEGVVKELAENNHILERFGSLTMDGGLRNVDCL
  binding: binds

B2: endogenous TAK1 (enzyme, UniProt O43318 1-606)
chain: MSTASAASSSSSSSAGEMIEAPSQVLNFEEIDYKEIEVEEVVGRGAFGVVCKAKWRAKDVAIKQIESESERKAFIVELRQLSRVNHPNIVKLYGACLNPVCLVMEYAEGGSLYNVLHGAEPLPYYTAAHAMSWCLQCSQGVAYLHSMQPKALIHRDLKPPNLLLVAGGTVLKICDFGTACDIQTHMTNNKGSAAWMAPEVFEGSNYSEKCDVFSWGIILWEVITRRKPFDEIGGPAFRIMWAVHNGTRPPLIKNLPKPIESLMTRCWSKDPSQRPSMEEIVKIMTHLMRYFPGADEPLQYPCQYSDEGQSNSATSTGSFMDIASTNTSNKSDTNMEQVPATNDTIKRLESKLLKNQAKQQSESGRLSLGASRGSSVESLPPTSEGKRMSADMSEIEARIAATTAYSKPKRGHRKTASFGNILDVPEIVISGNGQPRRRSIQDLTVTGTEPGQVSSRSSSPSVRMITTSGPTSEKPTRSHPWTPDDSTDTNGSDNSIPMAYLTLDHQLQPLAPCPNSKESMAVFEQHCKMAQEYMKVQTEIALLLQRKQELVAELDQDEKDQQNTSRLVQEHKKLLDENKSLSTYYQQCKKQLEVIRSQQQKRQGTS
  binding: binds
